Measurements taken from patent publication US7582317B2, “Food supplements comprising, as a health component, sargahydroquinoic acid or derivative thereof” (priority 2001, dated 2009).
At least one compound was matched to its structure with a doubt left.

Legend:
[1] = biological target: T1, human PPARγ1 (Homo sapiens, UniProt P37231); assay: PPARγ reporter gene assay in cos-7 cells; assay type: cell-based; settings: 46 hours with ligand, FIG. 4
T1 construct: expressed in transfected cells; host or cells: cos-7 cells (ECACC No. 87021302)
T1 sequence (P37231 1-477 isoform P37231-2): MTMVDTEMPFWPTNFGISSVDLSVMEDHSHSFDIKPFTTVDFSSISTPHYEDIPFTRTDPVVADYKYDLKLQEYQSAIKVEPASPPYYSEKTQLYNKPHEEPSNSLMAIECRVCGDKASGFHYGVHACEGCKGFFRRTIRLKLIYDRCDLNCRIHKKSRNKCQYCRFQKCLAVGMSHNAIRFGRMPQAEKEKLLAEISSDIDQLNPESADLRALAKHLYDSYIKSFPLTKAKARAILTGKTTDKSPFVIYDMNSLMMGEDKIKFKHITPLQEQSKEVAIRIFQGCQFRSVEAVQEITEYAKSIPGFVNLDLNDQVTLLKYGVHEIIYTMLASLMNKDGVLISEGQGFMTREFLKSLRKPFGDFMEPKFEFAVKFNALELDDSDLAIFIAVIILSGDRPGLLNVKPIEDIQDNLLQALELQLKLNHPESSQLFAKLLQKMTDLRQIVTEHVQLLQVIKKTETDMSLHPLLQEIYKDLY
T1 sequence (P19793 1-462 partner): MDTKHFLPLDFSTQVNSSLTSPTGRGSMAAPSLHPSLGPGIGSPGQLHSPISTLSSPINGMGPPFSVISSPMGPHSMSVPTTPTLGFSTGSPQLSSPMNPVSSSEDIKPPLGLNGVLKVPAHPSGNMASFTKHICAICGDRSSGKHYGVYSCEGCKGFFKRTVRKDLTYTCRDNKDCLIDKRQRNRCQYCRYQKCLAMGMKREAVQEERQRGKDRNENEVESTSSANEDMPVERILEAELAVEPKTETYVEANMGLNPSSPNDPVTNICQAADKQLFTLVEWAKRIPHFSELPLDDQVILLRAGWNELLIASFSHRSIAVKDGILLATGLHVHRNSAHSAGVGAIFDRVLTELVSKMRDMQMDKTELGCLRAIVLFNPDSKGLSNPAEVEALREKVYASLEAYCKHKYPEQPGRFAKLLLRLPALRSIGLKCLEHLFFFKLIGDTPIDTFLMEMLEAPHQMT

[2] = biological target: T2, PPARα (Homo sapiens, UniProt Q07869); assay: PPARα reporter gene assay in Cos-7 cells; assay type: cell-based; settings: 10 μM, 24 hours, FIG. 3
T2 construct: expressed in transfected cells; host or cells: Cos-7 cells (ECACC No. 87021302)
T2 sequence (Q07869 1-468): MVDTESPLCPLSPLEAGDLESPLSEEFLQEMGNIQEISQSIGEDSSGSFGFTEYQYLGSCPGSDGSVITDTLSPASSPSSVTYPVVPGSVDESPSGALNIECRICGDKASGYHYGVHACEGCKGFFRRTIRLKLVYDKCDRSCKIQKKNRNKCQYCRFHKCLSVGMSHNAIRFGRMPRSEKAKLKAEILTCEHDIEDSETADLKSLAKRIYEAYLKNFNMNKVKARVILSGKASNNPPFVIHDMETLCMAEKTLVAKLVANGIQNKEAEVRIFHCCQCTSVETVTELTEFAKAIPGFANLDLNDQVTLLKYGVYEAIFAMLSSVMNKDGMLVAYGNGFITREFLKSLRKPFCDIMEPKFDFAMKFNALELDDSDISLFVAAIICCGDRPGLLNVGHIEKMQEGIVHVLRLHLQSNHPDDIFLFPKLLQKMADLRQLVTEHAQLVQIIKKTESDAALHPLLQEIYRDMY

[3] = system: cholesterol esterase; assay: Cholesterol esterase inhibition (conversion of cholesterol to cholesterol oleate); assay type: biochemical, pig; settings: 37° C., 1 hour, pH6.2; FIG. 5
[4] = biological target: T3, RXRα (Homo sapiens, UniProt P19793); assay: Reporter gene assay in Cos-7 cells, "plus RXR" cells; assay type: cell-based; settings: 10 μM, 24 hours, FIG. 3
T3 construct: expressed in transfected cells; host or cells: Cos-7 cells (ECACC No. 87021302)
T3 sequence (P19793 1-462): T1 sequence (P19793 1-462 partner)

[5] = system: decorin; assay: Dot blot assay for decorin synthesis in human dermal fibroblasts; assay type: cell-based; settings: primary human foreskin fibroblasts, 24 hours, relative to vehicle control; FIG. 2

## CC(C)=CCC/C(=C/CC/C(C)=C/CC/C(C)=C/Cc1cc(O)cc(C)c1O)C(=O)O [SHQA, 12-(2^1,5^1-dihydroxy-3^1-methylphenyl)-6,10 dimethyl-2-(4^1-methyl-3^1-pentenyl)-2E, 6E, 10E dodecatrienoic acid]
[1]
  activation of PPARγ (reporter gene activity): good activation of PPARγ
[2]
  PPAR alpha ligand (reporter gene activation): is a PPAR alpha rather than an RXR ligand
[3]
  inhibition of conversion of cholesterol to cholesterol oleate (cholesterol esterase): inhibited the conversion of cholesterol to cholesterol oleate
[4]
  RXR ligand (reporter gene activation): rather than an RXR ligand
[5]
  decorin production: enhances decorin production
